Measurements published in publication PMC6667215, “Cell-sized confinement controls generation and stability of a protein wave for spatiotemporal regulation in cells” (eLife, 2019).
No constants are given. Whether binding was seen depends on the method and setting.

Protein sequences, listed by entry. Tags and fused reporters are not part of them. Residues count along the entry.
UniProt P0AEZ3: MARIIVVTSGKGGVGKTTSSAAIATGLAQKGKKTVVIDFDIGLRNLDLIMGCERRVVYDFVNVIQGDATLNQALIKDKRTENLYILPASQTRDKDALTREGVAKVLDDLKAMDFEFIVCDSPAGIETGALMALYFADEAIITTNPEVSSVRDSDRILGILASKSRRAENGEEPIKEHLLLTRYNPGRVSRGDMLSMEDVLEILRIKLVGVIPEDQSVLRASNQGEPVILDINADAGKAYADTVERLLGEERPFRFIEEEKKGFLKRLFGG
UniProt P02769, residues 25-607: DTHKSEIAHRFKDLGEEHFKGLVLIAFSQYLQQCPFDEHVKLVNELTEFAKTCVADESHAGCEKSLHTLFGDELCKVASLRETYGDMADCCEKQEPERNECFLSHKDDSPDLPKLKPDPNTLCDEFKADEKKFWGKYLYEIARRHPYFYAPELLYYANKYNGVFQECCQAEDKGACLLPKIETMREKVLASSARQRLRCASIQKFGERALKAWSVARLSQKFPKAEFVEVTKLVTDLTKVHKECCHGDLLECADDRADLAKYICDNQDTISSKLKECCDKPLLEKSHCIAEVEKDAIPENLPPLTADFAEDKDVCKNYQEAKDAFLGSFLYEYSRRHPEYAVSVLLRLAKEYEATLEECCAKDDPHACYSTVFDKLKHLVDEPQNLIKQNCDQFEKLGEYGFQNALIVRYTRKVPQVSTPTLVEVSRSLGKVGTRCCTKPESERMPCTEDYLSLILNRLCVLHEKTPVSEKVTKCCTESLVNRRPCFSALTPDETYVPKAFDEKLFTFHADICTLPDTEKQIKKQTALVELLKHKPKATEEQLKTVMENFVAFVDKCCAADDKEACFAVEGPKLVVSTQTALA

Experiments:
[1] = molecular target: His-sfGFP-MinD (E. coli MG1655) (UniProt P0AEZ3); test: pull-down; His-tagged Min protein held on cOmplete His-Tag purification (Ni-NTA) resin; 9 µM MinE-mCherry-His, 3 µM His-sfGFP-MinD or 6 µM thrombin-treated MinD^D40AΔ10, with or without 3 µM BSA; RE buffer, 30 min, room temperature; washed with 20 mM imidazole, eluted with 250 mM imidazole; SDS-PAGE and CBB staining; both purified
[2] = molecular target: MinE-mCherry-His (E. coli K12 MG1655) (UniProt P0A734); test: as above

## BSA (from UniProt P02769 25-607)
[1]
  binding: no binding (tested: 3 µM BSA)
[2]
  binding: no binding (tested: 3 µM BSA)
